Measured values from PubChem BioAssay AID1487 (National Center for Advancing Translational Sciences (NCATS), 2009).
Some of the results follow. These are further read-outs of the screen, such as a control signal, another cell line or another target. No call is given for them. Most of these compounds were active or inconclusive in the main read-out, so they are no random draw. Words in brackets tell the shape of the fitted curve; partial curves, single points and poor fits give uncertain potencies.

Test: qHTS Assay for Modulators of Lamin A Splicing
Conditions: HeLa LMNA splicing GFP/RFP minigene ratio, 48 h
Summary of the method: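 Read-out is the ratio of GFP to DsRed2 object intensity, acquired by 488 nm laser-scanning cytometry on HeLa lamin A-EGFP minigene reporter cells. Compound incubation 48 hrs at 37 °C in Opti-MEM with 2% FBS; DMSO 0.5% final.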

[1] = measured here: GFP splicing reporter channel
[2] = measured here: RFP viability control channel

| Compound | AC50 [1] | AC50 [2] |
| --- | --- | --- |
| CS(=O)(=O)Nc1ccc(C(=O)N2CCc3ccccc3C2)cc1 | 35.5 µM [rising, single point] |  |
| CCc1ccc(-c2cc(C(=O)NCc3ccco3)c3ccccc3n2)s1 | 3.16 µM [rising, partial curve] |  |
| C=CCN(CC=C)S(=O)(=O)c1ccc2nc(NC(=O)C(C)C)sc2c1 |  | 3.98 µM [rising, single point] |
| O=C(CSc1c(Cl)cccc1Cl)N1CCC(c2nc3ccccc3s2)CC1 | 11.2 µM [falling, partial curve, poor fit] | 14.1 µM [falling, partial curve] |
| C=CCc1ccccc1OCC(O)CN1CCN(C(=O)OCC)CC1 (stereo not given) | 7.08 µM [rising, single point] | 5.01 µM [rising, single point] |
| Cc1cc(Nc2cccc(Cl)c2)nc(NCc2ccccc2)n1 | 12.6 µM [rising, single point] | 15.8 µM [rising, partial curve] |
| CCN=C1S/C(=C\c2cc(OCC)c(O)cc2Br)C(=O)N1CC | 11.2 µM [rising, partial curve, poor fit] | 12.6 µM [rising, partial curve] |
| N#Cc1cccc(-c2nc(N3CCNCC3)c3ccccc3n2)c1 |  | 35.5 µM [rising, single point] |
| Clc1ccccc1-c1nc(Nc2ccncc2)c2ccccc2n1 | 17.8 µM [falling, partial curve] | 20 µM [falling, partial curve, poor fit] |
| O=C(COc1ccc(S(=O)(=O)NC2CCCCC2)cc1Cl)NCc1ccc2c(c1)OCO2 |  | 15.8 µM [rising, single point] |
| Cc1ccc2nc(N3C(=O)CNC3=S)sc2c1 |  | 22.4 µM [rising, single point] |
| CCn1c(C)[n+](CC)c2ccc(C(=O)N(C)c3ccccc3)cc21 | 25.1 µM [falling, single point] |  |
| O=c1c2nccnc2[nH]c(=S)n1Cc1ccccc1 | 0.0708 µM [rising, full curve, poor fit] |  |
| Clc1ccc(CSc2nnc(-c3ccncc3)o2)c(Cl)c1 |  | 25.1 µM [rising, single point] |
| COc1cccc(NC(=O)N2CCN(c3ccc(C(F)(F)F)cn3)CC2)c1 | 7.08 µM [rising, full curve] | 11.2 µM [rising, partial curve] |
| Cc1ccc2cc(C#N)c(NCCNC(=O)C3CCC3)nc2c1C |  | 35.5 µM [rising, single point] |
| Oc1ccc(Nc2ncnc3scc(-c4ccccc4)c23)cc1 | 1.58 µM [rising, partial curve, poor fit] | 5.62 µM [rising, partial curve, poor fit] |
| N/C(=N\OC(=O)COc1ccc2ccccc2c1)c1cccnc1 | 31.6 µM [rising, single point] | 31.6 µM [rising, single point] |
| FC(F)(F)c1cccc(NC(=S)NCC2COc3ccccc3O2)c1 (stereo not given) | 3.98 µM [rising, full curve, poor fit] | 12.6 µM [rising, partial curve] |

| Compound | AC50 [1] | AC50 [2] |
| --- | --- | --- |
| Cc1ccc(C)c(N2CCN(S(=O)(=O)c3cccc4cccnc34)CC2)c1 | 0.00794 µM [rising, full curve, poor fit] |  |
| CCC(CC)NC(=O)/C=C/c1cccc([N+](=O)[O-])c1 | 2.82 µM [rising, partial curve, poor fit] |  |
| Clc1ccc(Cn2ncc3c(NCc4ccccc4)ncnc32)c(Cl)c1 | 5.62 µM [rising, single point] | 4.47 µM [rising, single point] |
| CCCOc1ccc(OCCSc2nnc(N)s2)cc1 |  | 15.8 µM [rising, single point] |
| Cc1cc(C)nc(N/N=C/c2ccccc2)n1 |  | 2.51 µM [falling, partial curve, poor fit] |
| COc1cccc(CNC(=O)c2cc3oc4ccccc4c3n2C)c1OC |  | 1.78 µM [rising, full curve] |
| O=C(c1cccs1)N1CCN(Cc2cccc([N+](=O)[O-])c2)CC1 |  | 10 µM [rising, partial curve, poor fit] |
| O=C(/C=C/c1cccs1)Nc1ccc(N2CCOCC2)c(S(=O)(=O)Nc2ccccc2Cl)c1 |  | 8.91 µM [rising, partial curve] |
| O=C(Nc1ccc(N2CCCCC2)c(Cl)c1)c1cccnc1 |  | 15.8 µM [rising, partial curve] |
| Cc1ccc(N(C)C(=O)C2CCN(S(=O)(=O)c3c(C)noc3/C=C/c3c(C)cc(C)cc3C)CC2)cc1 | 31.6 µM [rising, single point] | 14.1 µM [rising, single point] |
| CC(=O)c1cnc(SCc2ccc(Cl)cc2)nc1C | 0.355 µM [falling, full curve, poor fit] | 0.355 µM [falling, full curve, poor fit] |
| COc1cccc(NC2C=CS(=O)(=O)C2)c1 (stereo not given) |  | 12.6 µM [rising, single point] |
| Cn1c(CCN2CCCCC2)nc2cc([N+](=O)[O-])ccc21 | 12.6 µM [falling, partial curve] |  |
| COc1cccc(NC(=O)C2=C(C)C(=O)OC23CCN(C(C)=O)CC3)c1 |  | 0.708 µM [falling, full curve] |
| O=C(Nc1ncc(Cc2cccc(Cl)c2Cl)s1)C1CCCO1 (stereo not given) | 6.31 µM [rising, single point] |  |
| O=C(c1cc(-c2ccco2)on1)N1CCN(C(c2ccccc2)c2ccccc2)CC1 |  | 12.6 µM [rising, partial curve] |
| O=C(Nc1ccc(SC(F)(F)F)cc1)c1ccccn1 | 0.126 µM [falling, full curve] |  |
| Cc1cc2cc(CN(Cc3cccs3)C(=S)NCC3CCCO3)c(=O)[nH]c2cc1C (stereo not given) | 17.8 µM [rising, single point] | 35.5 µM [rising, single point] |

A few values from the list:
Under AC50 [2], Clc1ccc(Cn2ncc3c(NCc4ccccc4)ncnc32)c(Cl)c1 has 4.47 µM [rising, single point]
Under AC50 [1], O=c1c2nccnc2[nH]c(=S)n1Cc1ccccc1 has 0.0708 µM [rising, full curve, poor fit]
Under AC50 [2], COc1cccc(NC2C=CS(=O)(=O)C2)c1 (stereo not given) has 12.6 µM [rising, single point]
